# Several values for one entry are separate records, joined by “and”; a condition that tells them apart may be missing. Identical values can stand only once. Counter-ions that a name gives are not always drawn. Some of the results follow. Repeats in this data set agree poorly, so a single value says little.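 HEK293T cells were given each compound shortly before transfection with a reporter in which red mCherry is followed by the SARS-CoV-2 frameshift element and then GFP in the −1 frame, so GFP appears only after frameshifting.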
# Assays:
# [1] = tested on: SARS-CoV-2 -1 PRF reporter mCherry-FSE-GFP(-1); experiment: mCherry (red) intensity as percent of control; higher = higher upstream reporter expression; conditions: 10 µM; 24 h; HEK293T
# [2] = tested on: SARS-CoV-2 -1 PRF reporter mCherry-FSE-GFP(-1); experiment: percent effect, decrease of GFP/mCherry ratio (-1 PRF reporter) relative to controls; higher = stronger frameshift inhibition; conditions: 10 µM; 24 h; HEK293T
SMILES,mCherry [1],percent effect [2]
CC(=O)[C@@]1(O)CC[C@H]2[C@@H]3CCC4=CC(=O)CC[C@]4(C)[C@H]3CC[C@@]21C [hydroxyprogesterone],106%,2.27%
O=C1c2ccccc2C(=O)C1c1ccc(Br)cc1 [bromindione],88.5%,0.832%
Cc1cccc(Nc2ccncc2S(=O)(=O)NC(=O)NC(C)C)c1 [Torasemide],84.5%,-0.234%
COc1ccc(C(=O)CCC(=O)O)c2ccccc12 [menbutone],80.3%,-0.514%
CC1(C)S[C@@H]2[C@H](NC(=O)[C@H](N)c3ccccc3)C(=O)N2[C@H]1C(=O)OC1OC(=O)c2ccccc21 (stereo partly drawn) [talampicillin],73.1%,-7.91%
Cc1c(-c2ccccc2)oc2c(C(=O)OCCN3CCCCC3)cccc2c1=O [flavoxate],104%,0.217%
CCCCC(F)(F)[C@@]1(O)CC[C@H]2[C@@H](CC(=O)[C@@H]2CCCCCCC(=O)O)O1 [lubiprostone],93%,-4.37%
NC(N)=Nc1nc(CSCCN/C=N/S(=O)(=O)c2ccc(Br)cc2)cs1 [ebrotidine],81.7%,1.43%
Nc1ccn([C@@H]2O[C@H](CO)[C@@H](O)C2(F)F)c(=O)n1 [gemcitabine],22.4%,10.1%
Nc1ncnc2nc[nH]c12 [Leuco-4],149%,-1.01%
N#CC[C@H](C1CCCC1)n1cc(-c2ncnc3[nH]ccc23)cn1 [Ruxolitinib],92.3%,-5.5%
CO[C@H]1C[C@@H]2CC[C@@H](C)[C@@](O)(O2)C(=O)C(=O)N2CCCC[C@H]2C(=O)O[C@H]([C@H](C)C[C@@H]2CC[C@@H](O)[C@H](OC)C2)CC(=O)[C@H](C)/C=C(\C)[C@@H](O)[C@@H](OC)C(=O)[C@H](C)C[C@H](C)/C=C/C=C/C=C/1C [Rapamycin],105%,-2.12%
CC(C)NCC(O)COc1ccc(CCOCC2CC2)cc1 (stereo not drawn) [betaxolol],99.7%,-3.15%
O=C1NS(=O)(=O)c2ccccc21,142%,2.22%
C[C@H]1[C@H](NC(=O)/C(=N\OC(C)(C)C(=O)O)c2csc(N)n2)C(=O)N1S(=O)(=O)O,99.9%,0.116%
C=C[C@@]1(C)CC(=O)[C@]2(O)[C@@]3(C)[C@@H](O)CCC(C)(C)[C@@H]3[C@H](O)[C@H](OC(C)=O)[C@@]2(C)O1 [colforsin],59.2%,-7.48%
O=C(Nc1ccc(C(=O)O)c(O)c1)c1ccccc1 [calcium benzamidosalicylate],88.7%,-4.72%
COc1ccc(-c2ccc3cc(C(=O)O)ccc3c2)cc1C12CC3CC(CC(C3)C1)C2 [adapalene],102% and 80.2%,-3.84% and -1.6%
Cc1ccccc1N1C(=O)c2cc(S(N)(=O)=O)c(Cl)cc2NC1C (stereo not drawn) [metolazone],101%,-7.19%
CN1CCC(=C2c3ccccc3C=Cc3ccccc32)CC1 [cyproheptadine],105% and 83.2%,-0.635% and -2.3%
O=C1c2cccc(O)c2C(=O)c2c(O)cccc21 [dantron],75.8%,-1.78%
CC[N+](C)(CC)CCOC(=O)C(O)(c1ccccc1)C1CCCCC1 (stereo not drawn) [oxyphenonium bromide],76.7%,-3.09%
NC(Cc1ccccc1)C(=O)O (stereo not drawn),103%,-3.59%

SMILES,mCherry [1],percent effect [2]
O=c1ccn([C@@H]2O[C@H](COP(=O)(O)OP(=O)(O)OP(=O)(O)OP(=O)(O)OC[C@H]3O[C@@H](n4ccc(=O)[nH]c4=O)[C@H](O)[C@@H]3O)[C@@H](O)[C@H]2O)c(=O)[nH]1 [diquafosol],101%,-3.86%
CC(C)(C)NCC(O)COc1ccccc1C#N (stereo not drawn) [bunitrolol],71.6%,0.557%
CCCCCCCCNC(C)C(O)c1ccc(SC(C)C)cc1 (stereo not drawn),87.7%,-0.0771%
CNC(=O)CN(CCN(CCN(CC(=O)[O-])CC(=O)NC)CC(=O)[O-])CC(=O)[O-].[Gd+3] [Omniscan],117%,-4.03%
CCN(CC)CC(=O)Nc1c(C)cccc1C [Lidocaine·HCl·H2O],81.3%,-0.353%
COc1ccc(CC(C)(C)NC[C@H](O)c2cc(O)cc3c2OCC(=O)N3)cc1 [Olodaterol],97.3% and 102%,-6.66% and -0.201%
O=C(Oc1ccccc1C(=O)O)c1ccccc1O [salsalate],85.8%,0.0485%
C[C@@H]1CCO[C@H]2Cn3cc(C(=O)NCc4ccc(F)cc4F)c(=O)c(O)c3C(=O)N12 [Dolutegravir],93.2%,-7.01%
COc1cnc(NS(=O)(=O)c2ccc(N)cc2)nc1 [sulfametoxydiazine],87.9%,-2.05%
CC(=O)OCC(=O)[C@@]1(O)[C@H](OC(C)=O)C[C@H]2[C@@H]3CCC4=CC(=O)C=C[C@]4(C)[C@@]3(F)[C@@H](O)C[C@@]21C,93.8%,-1.11%
NC(=O)N1c2ccccc2CC(=O)c2ccccc21 [oxcarbazepine],79.4% and 67.3%,-1.22% and -5.99%
NC(=O)CC[C@@H]1NC(=O)[C@H](Cc2ccccc2)NC(=O)[C@H](Cc2ccc(O)cc2)NC(=O)[C@@H](N)CSSC[C@@H](C(=O)N2CCC[C@H]2C(=O)N[C@@H](CCCN=C(N)N)C(=O)NCC(N)=O)NC(=O)[C@H](CC(N)=O)NC1=O [argipressin],95.9%,-0.419%
CC[N+](CC)(CC(=O)Nc1c(C)cccc1C)Cc1ccccc1 [denatonium benzoate],117%,-2.78%
O=C(/C=C/c1ccc2c(c1)OCO2)N1CCCCC1 [ilepcimide],87.7%,-4.26%
CC(C)Cc1ccc(C(C)C(=O)NCCO)cc1 (stereo not drawn) [mabuprofen],123%,-5.71%
COc1cc2nccc(Oc3ccc(NC(=O)NC4CC4)c(Cl)c3)c2cc1C(N)=O [Lenvatinib],90.7%,-3.24%
CC(=O)c1ccc(S(=O)(=O)NC(=O)NC2CCCCC2)cc1 [acetohexamide],112%,0.43%
N#Cc1ccc2c(c1)N(CCCN1CCC(O)CC1)c1ccccc1S2 [periciazine],88.7%,-1.12%
CO/N=C(\C(=O)N[C@@H]1C(=O)N2C(C(=O)O)=C(/C=C\c3scnc3C)CS[C@H]12)c1csc(N)n1 [Cefditoren],94.3%,-1.41%
CC(C)NCC(O)COc1cccc2c1N(C(=O)c1cccnc1)CCC2 (stereo not drawn) [nicainoprol],95.8%,0.00339%
CCCCCCCCCCCCCCCCCC(=O)OC[C@H](COP(=O)(O)OC[C@H](N)C(=O)O)OC(=O)CCCCCCCCCCCCCCCCC [Phosphatidylserine],84.8%,-7.12%
Cc1cc2nc3c(=O)[nH]c(=O)nc-3n(C[C@H](O)[C@H](O)[C@H](O)CO)c2cc1C [Vitamin B2],104% and 121%,-23.7% and -22.2%
CC1Oc2ccc(Cl)cc2N(CC(O)CO)C1=O (stereo not drawn) [diproxadol],92.2%,0.453%

SMILES,mCherry [1],percent effect [2]
CCC(=O)O[C@]1(C(=O)CCl)[C@@H](C)C[C@H]2[C@@H]3CCC4=CC(=O)C=C[C@]4(C)[C@@]3(F)[C@@H](O)C[C@@]21C [Clobetasol Propionate],222%,-2.3%
COc1cc(NCCCC(C)N)c2ncccc2c1 (stereo not drawn) [quinocide],85.3%,-2.27%
CC(C)(C)c1ccc(CN2CCN(C(c3ccccc3)c3ccc(Cl)cc3)CC2)cc1 (stereo not drawn) [buclizine],104%,-2.4%
COC(=O)Nc1nc2cc(C(=O)c3ccc(F)cc3)ccc2[nH]1 [Flubendazole],77.8% and 57.8%,-7.27% and -11.8%
Nc1nnnn1-c1ccccc1 [fenamole],64.7%,-10.7%
CC1=C(/C=C/C(C)=C/C=C/C(C)=C/CO)C(C)(C)CCC1,112%,0.083%
CCCCCCCCCCCCCCCC(=O)OC[C@@H](O)[C@H]1OC[C@H](O)[C@H]1O [sorbitan palmitate],86.8%,1.05%
CC(C)(C#N)c1cc(Cn2cncn2)cc(C(C)(C)C#N)c1 [anastrozole],111% and 97.5%,-2.36% and 0.871%
COc1cc([C@@H]2c3cc4c(cc3[C@@H](O[C@@H]3O[C@@H]5CO[C@@H](c6cccs6)O[C@H]5[C@H](O)[C@H]3O)[C@H]3COC(=O)[C@H]23)OCO4)cc(OC)c1O,24.4%,-2.65%
CCC(=O)c1c(O)cc(O)cc1O [flopropione],91%,3.62%
CCOC(=O)C(C)(C)Oc1ccc(Cl)cc1 [clofibrate],87.5% and 97.3%,-2.65% and 3.42%
Cc1c(C(=O)OCCO)[n+]([O-])c2ccccc2[n+]1[O-] [temodox],72.1%,-12.8%
CN(Cc1ccccc1)Cc1ccccc1 [dibemethine],94.6%,-1.91%
Nc1ncnc2c1ncn2[C@@H]1O[C@H](COP(=O)(O)OP(=O)(O)OP(=O)(O)O)[C@@H](O)[C@H]1O [Adephos],116%,-2.08%
CCCCNc1cc(C(=O)O)cc(S(N)(=O)=O)c1Oc1ccccc1 [bumetanide],101% and 98.6%,-1.3% and -7.61%
CCN(CC)CCCC(C)Nc1ccnc2cc(Cl)ccc12 (stereo not drawn) [chloroquine],68%,-3.04%
CCOc1ccc2ccccc2c1C(=O)N[C@@H]1C(=O)N2[C@@H]1SC(C)(C)[C@@H]2C(=O)O,99.8%,-3.17%
CC(C(=O)O)c1ccc2c(c1)[nH]c1ccc(Cl)cc12 (stereo not drawn) [carprofen],94.6%,-2.4%
CC(C)[C@H](N)C(=O)OCCOCn1cnc2c(=O)nc(N)[nH]c21 [Valaciclovir],63.8%,-7.23%
C[C@@H]1C[C@H]2[C@@H]3CCC4=CC(=O)C=C[C@]4(C)[C@@]3(F)[C@@H](O)C[C@]2(C)[C@H]1C(=O)CO [desoximetasone],117%,-4.17%
CC(=O)c1ccc2c(c1)N(CCCN(C)C)c1ccccc1S2,101%,-3.27%
CCCOc1ccc(C(=O)OCCN(CC)CC)cc1N,97.1%,-2%
Oc1ccc(OCc2ccccc2)cc1 [monobenzone],119%,4.19%

# Reference: the supplement of paper PMC8256030
